# In the supplement of paper PMC10338343:
# ± gives the standard deviation. This is a selection; strong and weak results do not stand in their true shares. Many entries were measured with a wide error. The list shows a part of the results.
# Key:
# [1] = system: MILI (PIWIL2) piRISC loaded with L1MC piRNA (26 nt); test: pre-steady-state target cleavage rate (min^-1); higher = faster piRNA-guided slicing of the target; conditions: guide: L1MC piRNA 5'p-UAACUAAAUACUAUGCAAGCUGUAGG; auxiliary factor: none (no GTSF1)
# Outline: (§1)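 In this Cleave-'n-Seq assay, uncleaved targets were sequenced and normalised to depth and to weakly complementary targets. They came from a transcribed, DNA-blocked target RNA library […] mixed with 1 nM active affinity-purified piRISC carrying one synthetic guide, with or without 500 nM GTSF1 partner protein, in HEPES–potassium acetate buffer at 33 °C for 0–8 or 0–960 min. After three trials were pooled and k3 was capped at 0.0001 min^-1, the pre-steady-state cleavage rate was obtained from a burst-and-steady-state fit.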
# [2] = system: MIWI (PIWIL1) piRISC loaded with L1MC piRNA (30 nt); test: as above; conditions: guide: L1MC piRNA 5'p-UAACUAAAUACUAUGCAAGCUGUAGGUCCU
# Outline: as §1
# [3] = system: EfPiwi piRISC loaded with L1MC piRNA (26 nt); test: pre-steady-state target cleavage rate (min^-1); guide: L1MC piRNA 5'p-UAACUAAAUACUAUGCAAGCUGUAGG; MIWI and MILI are mouse PIWI proteins and EfPiwi is from a freshwater sponge; tags in brackets are library labels; higher = faster piRNA-guided slicing of the target
# Outline: as §1
# [4] = auxiliary factor: none (no GTSF1)
# [5] = auxiliary factor: 500 nM Ephydatia muelleri Gtsf1
# [6] = auxiliary factor: none (no Gtsf1)
Sequence,pre-steady-state target cleavage rate [1],"pre-steady-state target cleavage rate [2, 4]","pre-steady-state target cleavage rate [3, 5]","pre-steady-state target cleavage rate [3, 6]",pre-steady-state target cleavage rate ([2]; auxiliary factor: 500 nM mouse GTSF1)
UCCUGGAUGUCGAAGCAUUCAAUUUAGUUA,0.000296 ± 0.014,0.000535 ± 0.0095,0.000274 ± 0.0081,0.000234 ± 0.021,
UCCUGCUACAGCUUGCAUACAUAAAUCAAA [g12:g25:cont:t1A],0.000873 ± 0.0065,0.000742 ± 0.014,0.000657 ± 0.011,< 0.0001,
UCCUGCUACAGCUUCCAUAGUAUUUUGUUA,0.000753 ± 0.0081,0.00161 ± 0.0058,0.0012 ± 0.0038,0.000359 ± 0.015,
UCCUCCUACAGCUUGCAUAGAUAAAUCAAA [g11:g26:cont:t1A],0.000212 ± 0.016,0.000263 ± 0.016,0.000732 ± 0.0072,0.000184 ± 0.036,
UCCUGGUUCAGCUUCCAUAGUAUUUAGUUA,0.00231 ± 0.0035,0.00188 ± 0.0032,0.00303 ± 0.0021,0.000664 ± 0.013,
UCCUCCUACAGCAUCCAUAGUAUUUAGUUA,0.0025 ± 0.0029,0.00149 ± 0.0025,0.00359 ± 0.0017,0.000318 ± 0.015,
UCCUGGAUGUCCUUCCAAAGUAUUUAGUUA,0.000147 ± 0.015,0.000243 ± 0.011,0.00026 ± 0.012,0.00038 ± 0.013,
UCCUCCUACAGCUUCCAUAGUAUUUAGAAA,0.000494 ± 0.01,0.000871 ± 0.0066,0.00369 ± 0.0018,0.000483 ± 0.012,
UCCUGGAUGUCGAAGCAUAGUAUUUCAGUUA,0.000924 ± 0.0055,0.000721 ± 0.0086,0.00032 ± 0.0098,0.00068 ± 0.011,
UCCUGGAUCAGCUUGCAUUCUAUUUUCAAA,0.00051 ± 0.0092,0.000721 ± 0.0071,0.000254 ± 0.014,0.000105 ± 0.058,
UCCUGGAUGAGCUUGCAUAGUUAAUAGAAA,0.000616 ± 0.012,0.00118 ± 0.0078,0.00189 ± 0.0055,0.000748 ± 0.013,
UCCUGCUACAGCUUGCAUAGUUAAUACAAA,0.00109 ± 0.0045,0.00118 ± 0.0055,0.00254 ± 0.0059,0.000207 ± 0.026,
UCCUGGAUGUCGAUGCAUGAGUAUUUAGUUA,0.00061 ± 0.0086,0.00066 ± 0.01,0.00036 ± 0.01,0.000324 ± 0.025,
UCCUGCUACAGCUACCAUAGUAUUUAGUAA,0.00172 ± 0.0042,0.000943 ± 0.0087,0.00225 ± 0.0025,0.000342 ± 0.019,
UCCUGCUACAGCUUGCAUACAUUUUAGUAA,0.000961 ± 0.0054,0.000564 ± 0.015,0.000176 ± 0.025,< 0.0001,
UCCUGCUACAGGAAGCAUAGUAUUUUCAAA,0.000135 ± 0.021,0.000393 ± 0.019,0.00026 ± 0.015,0.000195 ± 0.026,
UCCUCCUACAGCUUGCAAUCUAUUUUCAAA,0.000583 ± 0.0078,0.000409 ± 0.014,0.00036 ± 0.011,< 0.0001,
UCCUGGUACAGGUUGCAUAGUAUUUAGAAA,0.00161 ± 0.004,0.00242 ± 0.0034,0.00246 ± 0.0028,0.000273 ± 0.034,
UCCUGGAACAGCUUGCAUAGUUAUUACAAA,0.000687 ± 0.0078,0.0009 ± 0.0053,0.00269 ± 0.0038,0.000137 ± 0.029,
UCCUCCUACAGCUUGCAUAGAAUUUACAAA,0.000793 ± 0.0052,0.00197 ± 0.0028,0.00295 ± 0.0029,0.000357 ± 0.013,
UCCUCCUACAGCUUGCAUAGUUAAUAGUAA,0.000731 ± 0.008,0.0012 ± 0.0034,0.00511 ± 0.003,0.000434 ± 0.011,
UCCUGGAUGUGCUUGCAUAGUAUUAUGAAA,0.00109 ± 0.0067,0.00231 ± 0.0033,0.000647 ± 0.0061,0.000547 ± 0.016,
UCCUGGAACAGCUUGCAUUCAAUUUAGUAA,0.000995 ± 0.0053,0.000705 ± 0.011,0.000564 ± 0.0048,0.000528 ± 0.013,

# Another view of some results above.
Sequence	pre-steady-state target cleavage rate [1]	pre-steady-state target cleavage rate [2, 4]	pre-steady-state target cleavage rate [3, 5]	pre-steady-state target cleavage rate [3, 6]	pre-steady-state target cleavage rate ([2]; auxiliary factor: 500 nM mouse GTSF1)
UCCUGCUACAGCUUGCAUACAUAAAUCAAA [g12:g25:cont:t1A]	0.000873 ± 0.0065	0.000742 ± 0.014	0.000657 ± 0.011	< 0.0001	
UCCUGCUACAGCUUCCAUAGUAUUUUGUUA	0.000753 ± 0.0081	0.00161 ± 0.0058	0.0012 ± 0.0038	0.000359 ± 0.015	
UCCUGGAUGUCGAUGCAUGAGUAUUUAGUUA	0.00061 ± 0.0086	0.00066 ± 0.01	0.00036 ± 0.01	0.000324 ± 0.025	
UCCUGGAUGUGCUUGCAUAGUAUUAUGAAA	0.00109 ± 0.0067	0.00231 ± 0.0033	0.000647 ± 0.0061	0.000547 ± 0.016	

# (listing goes on)

Sequence,pre-steady-state target cleavage rate [1],"pre-steady-state target cleavage rate [2, 4]","pre-steady-state target cleavage rate [3, 5]","pre-steady-state target cleavage rate [3, 6]",pre-steady-state target cleavage rate ([2]; auxiliary factor: 500 nM mouse GTSF1)
UCCUGGUACAGCUUGCAUAGAUAUUAGAAA,0.000317 ± 0.022,0.000227 ± 0.02,0.00185 ± 0.0061,0.000443 ± 0.013,
UCCUGGAACAGCUUGCAUUCUAUUUAGAAA,0.000493 ± 0.013,0.000319 ± 0.01,0.000646 ± 0.0064,0.000376 ± 0.02,
UCCUGGAACAGCUAGCAUAGUAUUUUCAAA,0.001 ± 0.0055,0.00109 ± 0.0057,0.00177 ± 0.0037,0.000132 ± 0.035,
UCCUGGAUGAGCUUCCAUAGUAUUUACAAA,0.000314 ± 0.02,0.000864 ± 0.0093,0.000774 ± 0.0034,0.000348 ± 0.022,
UCCUGGUACACGUUGCAUAGUAUUUACAAA,0.000988 ± 0.0098,0.000584 ± 0.011,0.000402 ± 0.015,0.000417 ± 0.021,
UCCUGGAUGAGCUUGCAUACAAUUUACAAA,0.000734 ± 0.0083,0.000909 ± 0.0081,0.000304 ± 0.013,0.000162 ± 0.05,
UCCUGCUACAGCUACGAUAGUAUUUACAAA,0.00017 ± 0.016,0.000462 ± 0.015,0.000954 ± 0.0085,0.000288 ± 0.015,
UCCUGCUACAGCUUGCAUAGUAUUUGUUA,0.0016 ± 0.0035,0.00169 ± 0.0042,0.00505 ± 0.002,0.00127 ± 0.0069,
UCCUCCUACAGCAACCAUAGUAUUUACAAA,0.000219 ± 0.011,0.00055 ± 0.0088,0.000997 ± 0.0082,0.000184 ± 0.032,
UCCUGGUACAGCUUGCUUAGUAUUUUCAAA,0.00157 ± 0.0043,0.000945 ± 0.0046,0.000633 ± 0.011,0.00035 ± 0.024,
UCCUCCUACAGCUUGCAUAGCUAUUUAGUUA,0.00147 ± 0.0047,0.00177 ± 0.0044,0.00189 ± 0.0023,0.00037 ± 0.013,
UCCUGCUACAGCUUGCAUAGUAUAUACAAA,0.0012 ± 0.0044,0.000959 ± 0.0081,0.00238 ± 0.0022,0.000641 ± 0.015,
UCCUGGAUGUCGAUGCAUAGUAUAUUGUUA,0.00186 ± 0.0049,,0.000675 ± 0.0082,0.000302 ± 0.022,0.000312 ± 0.028
UCCUGCUACAGCUUGCAUAGUUUUAGUUA,0.00124 ± 0.0048,0.000954 ± 0.0065,0.00248 ± 0.0013,0.000244 ± 0.017,
UCCUGCUACAGCUUGCAUAGUAUUAAGAAA,0.000942 ± 0.0061,0.00105 ± 0.0065,0.00481 ± 0.0021,0.000431 ± 0.016,
UCCUGGAUGUCGAACCAUUCAAUUUAGUUA,0.000193 ± 0.025,0.000491 ± 0.0085,< 0.0001,< 0.0001,
UCCUGCUACAGCUUGCAUAGAUUUAGUUA,0.0014 ± 0.0051,0.000768 ± 0.01,0.00286 ± 0.0015,0.000566 ± 0.011,
UCCUGCUACAGCUUGGUUAGUAUUUACAAA,0.000926 ± 0.0069,0.00104 ± 0.0062,0.000461 ± 0.0082,0.000752 ± 0.0095,
UCCUGCUACAGCUUGCAUUCAAUUUAGUUA,0.00197 ± 0.0027,0.000337 ± 0.0096,0.00103 ± 0.0053,0.000246 ± 0.017,
UCCUGGAUGAGCUUGCAUUCAAUUUAGUAA,0.000622 ± 0.0089,0.000253 ± 0.013,0.00177 ± 0.008,0.000396 ± 0.024,
UCCUGCUACAGGAAGCAUAGUAUUUAGAAA,0.00071 ± 0.0086,0.000463 ± 0.011,0.00209 ± 0.0022,0.000271 ± 0.016,
UCCUGGAACAGCUUGCUAAGUAUUUUCAAA,0.000859 ± 0.0076,0.000813 ± 0.009,0.00134 ± 0.0073,0.00061 ± 0.0088,
